PubChem BioAssay AID504808, Drosophila RNAi Screening Center, 2011
The screen tested about 21,000 reagents; below is an unselected part of those that have a named target and a result. Over the whole deposit, 18 (0.084%) were called active. 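Raw counts without plate normalisation, one of two replicates; the ratio scores behind the calls were not deposited.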 Unmarked entries are inactive. Reagents against one gene are numbered here. A plus sign joins genes that one reagent is predicted to hit. Reagent sequences are not shown. Not stated in the record: the amount of reagent, the time to read-out.

Purpose: 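Fly genes required to hold E2F transcription in check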 (primary screen)
System: Drosophila S2 cells
Reagent: long dsRNA against Drosophila genes
Measured: 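Firefly luciferase driven by E2F sites, normalised to Renilla luciferase on the same minimal promoter, measured by plate reader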
Direction: E2F firefly: higher = more E2F reporter activity; Renilla normaliser: higher = more normaliser reporter signal
Active means: 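a knock-down counted as active when the firefly/Renilla E2F signal rose above 50%, a threshold chosen arbitrarily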

target,dsRNA no.,"E2F firefly, rep 1","Renilla normaliser, rep 1"
luna (GeneID 2768719),1,1.38e5,5039
luna (GeneID 2768719),2,1.05e5,4126
luna (GeneID 2768719),3,1.30e5,4462
Fcp1 (GeneID 37925),1,86964,3990
CG7579 (GeneID 39714),1,1.53e5,6984
CG30075 (GeneID 246437),1,1.27e5,4673
Zaf1 (GeneID 41394),1,1.50e5,6965
Mpcp1 (GeneID 37297),1,1.59e5,5761
TBC1D23 (GeneID 33289),1,1.62e5,5368
Nepl3 (GeneID 326172),1,94980,3972
CG4650 (GeneID 34859),1,95455,3691
Ir54a + sub,1,1.40e5,4763
egl (GeneID 37757),1,86325,3904
CG8746 (GeneID 35867),1,1.49e5,4882
disp (GeneID 44274),1,1.32e5,6896
Ak2 (GeneID 37834),1,1.26e5,4623
lky (GeneID 33006),1,1.54e5,6651
CG10365 (GeneID 42801),1,1.16e5,5362
Ance-5 (GeneID 37980),1,73750,3205
drd (GeneID 318102),1,1.60e5,6044
CG42749 (GeneID 31438),1,44802,3334
CG42749 (GeneID 31438),2,34848,3172
Npc2b (GeneID 41710),1,1.04e5,5226
Uev1A (GeneID 38613),1,85360,3838
Nepl4 (GeneID 33889),1,87691,3557
Taf9 (GeneID 32762),1,1.57e5,5902
alpha-Catr (GeneID 49713),1,94219,3981
Pgant7 (GeneID 32836),1,1.50e5,5432
CG12895 (GeneID 36103),1,1.54e5,4788
Sec15 (GeneID 42499),1,83635,4473
E5 (GeneID 45396),1,68026,2118
E5 (GeneID 45396),2,72707,5383
cyc (GeneID 40162),1,1.42e5,7924
pgc (GeneID 5740599),1,92889,3320
CG10026 (GeneID 35226),1,96767,3923
CG7912 (GeneID 43561),1,1.11e5,6113
CG11298 (GeneID 37553),1,90937,3713
bcd (GeneID 40830),1,71246,3118
Cpr56F (GeneID 37299),1,1.47e5,5063
CAH13 (GeneID 36126),1,1.46e5,5522
CYLD (GeneID 34380),1,1.42e5,5092
CG10969 (GeneID 39451),1,1.33e5,6735
Art8 (GeneID 34528),1,1.46e5,5150
Pgm2a (GeneID 35923),1,2618,165
Decay (GeneID 42008),1,99242,4810
CG4763 (GeneID 37771),1,1.25e5,4587
CG4763 (GeneID 37771),2,89197,3561
Psf2 (GeneID 33641),1,1.21e5,4364
CG4271 (GeneID 33410),1,1.70e5,5823
CG1236 (GeneID 40708),1,72245,3533
Glys (GeneID 41823),1,77947,3375
CG17325 + CG42305,1,1.16e5,4242
a5 (GeneID 33317),1,1.80e5,5465
CG2126 (GeneID 43748),1,1.22e5,5005
CG13324 (GeneID 36434),1,1.04e5,4101
CG18605 (GeneID 37189),1,1.46e5,4881
CG18746 (GeneID 59142),1,1.15e5,5136
ND4 (retired record) (GeneID 192476),1,1.40e5,5088
Ant2 (GeneID 32008),1,7572,716
CG13460 (GeneID 39638),1,1.50e5,8388
Gem4b + Gem4c + Glos,1,1.16e5,5346
CG33060 (GeneID 39807),1,1.57e5,7082
CG13319 (GeneID 36423),1,51415,3287
CG34168 (GeneID 50457),1,1.03e5,4170
CG12951 (GeneID 41110),1,1.33e5,6649
Cypl (GeneID 38069),1,98231,4302

13 neighbouring reagents from above:
target,dsRNA no.,"E2F firefly, rep 1","Renilla normaliser, rep 1"
Nepl4 (GeneID 33889),1,87691,3557
Taf9 (GeneID 32762),1,1.57e5,5902
alpha-Catr (GeneID 49713),1,94219,3981
Pgant7 (GeneID 32836),1,1.50e5,5432
CG12895 (GeneID 36103),1,1.54e5,4788
Sec15 (GeneID 42499),1,83635,4473
E5 (GeneID 45396),1,68026,2118
E5 (GeneID 45396),2,72707,5383
cyc (GeneID 40162),1,1.42e5,7924
pgc (GeneID 5740599),1,92889,3320
CG10026 (GeneID 35226),1,96767,3923
CG7912 (GeneID 43561),1,1.11e5,6113
CG11298 (GeneID 37553),1,90937,3713

The list goes on.
target,dsRNA no.,"E2F firefly, rep 1","Renilla normaliser, rep 1"
Faa (GeneID 45577),1,70236,3331
CG5758 (GeneID 35083),1,77788,4094
CG5758 (GeneID 35083),2,97167,4514
px (GeneID 37573),1,71111,3376
adp (GeneID 37073),1,74130,3374
GatA (GeneID 42283),1,72081,3207
Myd88 (GeneID 35956),1,2754,176
Aldh (GeneID 34256),1,1.58e5,5465
Hr96 (GeneID 42993),1,81256,3983
tud (GeneID 37417),1,98894,4685
CG6508 (GeneID 34493),1,1.47e5,5599
CG10934 (GeneID 37013),1,69358,3129
Epp (GeneID 42840),1,71341,3718
Socs36E (GeneID 35085),1,64733,2953
CG34197 (retired record) (GeneID 5740455),1,1.58e5,5936
CG8834 (GeneID 36356),1,88311,4603
Cyp9f2 (GeneID 41520),1,70240,3270
Adgf-B (GeneID 39975),1,1.69e5,7902
CG1674 (GeneID 43780),1,1.35e5,5905
Cyp4s3 (GeneID 32444),1,1.50e5,6202
Vha13 (GeneID 42341),1,1.23e5,7182
del (GeneID 35380),1,89163,3329
CG14659 (GeneID 40604),1,1.18e5,5597
CG17169 (GeneID 3354995),1,1.41e5,7323
Spn42Da (GeneID 49805),1,1.49e5,5103
CG15468 (GeneID 31426),1,1.04e5,5159
CG14490 (GeneID 37041),1,1.50e5,4473
Patr-1 (GeneID 42058),1,72660,4607
Gld2 (GeneID 42602),1,68889,4698
scpr-A + scpr-C,1,1.45e5,7441
Smyd4-3 (GeneID 36234),1,3012,216
Jupiter (GeneID 41392),1,73442,3863
Jupiter (GeneID 41392),2,1.53e5,6766
Jupiter (GeneID 41392),3,1.43e5,6162
Meics (GeneID 39539),1,1.16e5,5659
CG7432 (GeneID 42347),1,1.36e5,7619
CG14505 (GeneID 37098),1,1.24e5,4753
Dscam4 (GeneID 2769008),1,1.44e5,4526
Dscam4 (GeneID 2769008),2,1.34e5,4642
Dscam4 (GeneID 2769008),3,91520,3903
Dscam4 (GeneID 2769008),4,74021,3891
Dscam4 (GeneID 2769008),5,97910,3749
